In PubChem BioAssay AID540256 (National Center for Advancing Translational Sciences (NCATS), 2011):
The whole screen tested about 300,000 compounds, of which about 3,700 (1.2%) were called active. Inconclusive means that the source gave no clear call. Such entries were picked first, then a sample of the others. Calls follow the shape of the full dose curve; tested in HEK293 cells. Where the call is inconclusive, the potency comes from a doubtful curve fit.

Test: qHTS for Inhibitors of binding or entry into cells for Lassa Virus; also: nearly all actives have a fitted effect of over 50% in size
Conditions: Lassa virus pseudotype entry inhibition, cell reporter; series mostly up to 37.9 µM
Potency is read from the fitted curve at half-maximal effect.

| Structure (SMILES) | Potency |
| --- | --- |
| Cc1ccc(-n2nc(C)c(C(=O)NCCCN3CCN(c4ccc(F)cc4)CC3)c2-n2cccc2)cc1 | inconclusive: 15.8 µM [inhibitor, single point] |
| COC(=O)c1ccc(OCC(O)CN2CCN(C(=O)c3ccco3)CC2)c(OC)c1 (stereo not given) | inconclusive: 6.31 µM [inhibitor, single point] |
| CCN(CC)CCOC(=O)c1ccc(NC(=O)Cn2ncc3c([nH]c4ccc(C)cc43)c2=O)cc1 | inconclusive: 2.51 µM [activator, single point] |
| COC(=O)c1c(C)[nH]c(C(=O)OCC(=O)c2c(N)n(CC(C)C)c(=O)n(C)c2=O)c1C | inconclusive: 35.5 µM [inhibitor, single point] |
| Nc1nc2ccc(Oc3ccccc3)cc2s1 | inconclusive: 20 µM [inhibitor, single point] |
| Cc1ccc(S(=O)(=O)N(Cc2cc3cccc(C)c3[nH]c2=O)c2ccccc2)cc1 | inconclusive: 3.55 µM [inhibitor, single point] |
| O=C(NCc1ccco1)C1CCN(C(=O)N2CCOc3ccccc32)CC1 | inactive |
| COCc1c(C(=O)Nc2cccc(S(=O)(=O)N3CCCCC3)c2)oc2ccccc12 | inconclusive: 12.6 µM [inhibitor, single point] |
| CCn1cc(CN2CCC(n3nccc3NC(=O)c3cccc(F)c3)CC2)cn1 | inconclusive: 5.62 µM [activator, single point] |
| Cc1ccc(NC(=O)CNC(=O)c2cccs2)cc1S(=O)(=O)Nc1ccc(Cl)cc1 | inconclusive: 16.4 µM [inhibitor, partial curve, poor fit] |
| O=[N+]([O-])c1ccc(-c2nc(-c3ccc(F)cc3)c(-c3ccncc3)[nH]2)cc1 | inconclusive: 9.2 µM [inhibitor, partial curve] |
| OC(Cc1ccnc2ccccc12)C(Cl)(Cl)Cl (stereo not given) | inconclusive: 3.55 µM [inhibitor, single point] |
| Cc1cc(C)cc(OC(C)C(=O)Nc2nonc2-c2ccc(Br)cc2)c1 (stereo not given) | inactive |
| N#Cc1c(SCc2ccc(Cl)cc2)sc(C(=O)c2ccccc2)c1N | inconclusive: 12.6 µM [inhibitor, single point] |
| OCC1(CCOc2ccccc2)CCN(Cc2nc3ccc(F)cc3[nH]2)CC1 | inconclusive: 12.6 µM [inhibitor, partial curve, poor fit] |
| CCC(C)NC(=O)c1cn(CC)c2cc(N3CCN(C(=O)c4ccco4)CC3)c(F)cc2c1=O (stereo not given) | inconclusive: 11.2 µM [inhibitor, partial curve, poor fit] |
| CC(C)(C)NC(=O)C(=O)NNC(=O)COc1ccc(Br)cc1 | inactive |
| CCCn1c(SCc2ccc(Cl)cc2)nc2c1c(=O)[nH]c(=O)n2C | active: 15.8 µM |
| Cc1[nH]n(-c2ccccc2)c(=O)c1C(C[N+](=O)[O-])c1ccc(F)cc1 (stereo not given) | inconclusive: 29.1 µM [inhibitor, single point] |
| CCCCn1c(O)c(C=NC2CCCCC2N)c(=O)[nH]c1=O (stereo not given) | inactive |
| Cc1c(C(=O)c2ccc(Cl)c([N+](=O)[O-])c2)c2ccccn2c1CCC#N | inconclusive: 20 µM [inhibitor, single point] |
| O=C(Nc1ccc(S(=O)(=O)N2CCCCCC2)cc1)c1ccco1 | inconclusive: 13 µM [inhibitor, partial curve, poor fit] |

3 structures from above, sorted by length of the SMILES, descending.

| Structure (SMILES) | Potency |
| --- | --- |
| COC(=O)c1c(C)[nH]c(C(=O)OCC(=O)c2c(N)n(CC(C)C)c(=O)n(C)c2=O)c1C | inconclusive: 35.5 µM [inhibitor, single point] |
| O=[N+]([O-])c1ccc(-c2nc(-c3ccc(F)cc3)c(-c3ccncc3)[nH]2)cc1 | inconclusive: 9.2 µM [inhibitor, partial curve] |
| N#Cc1c(SCc2ccc(Cl)cc2)sc(C(=O)c2ccccc2)c1N | inconclusive: 12.6 µM [inhibitor, single point] |

Remaining list, next part

| Structure (SMILES) | Potency |
| --- | --- |
| CCOc1ccc(C2c3[nH]c4ccccc4c3CCN2C(=O)CCc2ccccc2)cc1 (stereo not given) | inconclusive: 2.51 µM [inhibitor, full curve, poor fit] |
| CCCCOCCCn1c(-c2ccco2)nc2nc3ccccc3nc21 | inactive |
| CCN(CC(=O)Nc1ccccc1OC)CC(=O)Nc1ccccc1-c1ccccc1 | inconclusive: 3.16 µM [inhibitor, single point] |
| O=C(NCCc1c[nH]c2ccccc12)c1cc2sccc2n1Cc1ccccc1 | inconclusive: 10.3 µM [inhibitor, partial curve] |
| O=C(Nc1cccc(-c2cnc3ccccc3n2)c1)c1cccc(NC(=O)c2ccco2)c1 | inconclusive: 23.1 µM [inhibitor, partial curve, poor fit] |
| CC(C)(C)c1nc2cc(Cl)c([N+](=O)[O-])cc2o1 | inconclusive: 35.5 µM [inhibitor, partial curve, poor fit] |
| O=C(COC(=O)/C=C/c1ccc(F)cc1)Nc1ccc(S(=O)(=O)N2CCOCC2)cc1 | inactive |
| Cn1c(=O)c2c(nc(OC3CCCCCC3)n2C)n(C)c1=O | inconclusive: 2.82 µM [inhibitor, partial curve, poor fit] |
| Cn1c(=O)c2c(nc(NCc3ccc4c(c3)OCO4)n2Cc2ccccc2F)n(C)c1=O | inconclusive: 10 µM [inhibitor, partial curve, poor fit] |
| CC(C)(C)C(=O)Nc1ccc(N2CCN(c3ccc(C(F)(F)F)cn3)CC2)nc1 | inactive |
| Cc1cccc(C)c1NC(=O)C(NS(=O)(=O)c1ccc2c(c1)CCC(=O)N2)c1ccccc1 (stereo not given) | inconclusive: 15.8 µM [inhibitor, single point] |
| Cc1cc(Cl)ccc1NC(=S)NC1CCCC1 | inconclusive: 0.891 µM [activator, single point] |
| NC(=O)COC(=O)c1cccnc1Nc1ccccc1F | inactive |
| O=C(N[C@@H](Cc1ccccc1)C(=O)NC1CC1)c1ccc(Cl)cc1 | inactive |
| CCOc1ccc(C(=O)COC(=O)Cc2n[nH]c(=O)c3ccccc23)cc1 | inconclusive: 1.41 µM [inhibitor, full curve, poor fit] |
| CCn1c(-c2nonc2N)nc2cncc(C(=O)NCCNC)c21 | inconclusive: 12.5 µM [inhibitor, partial curve, poor fit] |
| COC(=O)c1nc2n(n1)C(c1cccc(Cl)c1)C(C(=O)Nc1ccccc1OC)=C(C)N2 (stereo not given) | inactive |
| CCN1CC(CN(C)Cc2cn(-c3ccc(C)cc3)nc2-c2cccc(C)c2)CC1=O (stereo not given) | inconclusive: 10 µM [inhibitor, partial curve, poor fit] |
| COc1ccc(CN2CCNC(=O)C2CC(=O)N(C)Cc2nccs2)cc1OC (stereo not given) | inconclusive: 5.62 µM [inhibitor, single point] |
| COc1ccc(Br)cc1CNC(=O)C1CCN(S(=O)(=O)N2CCCC2)CC1 | inactive |
| CC(C)N(Cc1ccccc1)C(=O)COC(=O)c1cc(S(=O)(=O)N(C)C)ccc1N1CCCC1 | inconclusive: 5.62 µM [inhibitor, full curve, poor fit] |
| C/C(=N\Nc1nnc2c3ccccc3n(C)c2n1)c1ccc(C)o1 | inconclusive: 9.2 µM [inhibitor, partial curve] |

| Structure (SMILES) | Potency |
| --- | --- |
| O=C(c1ccccc1)c1cnc(-c2ccc(Cl)cc2)s1 | inactive |
| CCCCN(CCCC)S(=O)(=O)c1ccc(NC(=O)c2cccs2)cc1 | inconclusive: 20.6 µM [inhibitor, partial curve, poor fit] |
| Cc1ccc(C2NC(c3ccc(C)cc3)C(C)C(=NO)C2C)cc1 (stereo not given) | inconclusive: 9.2 µM [inhibitor, partial curve, poor fit] |
| COc1ccc(N2CC(C)Cn3c2nc2c3c(=O)n(Cc3ccccc3)c(=O)n2C)c(OC)c1 (stereo not given) | inconclusive: 35.5 µM [inhibitor, single point] |
| COc1ccccc1N1CCN(C2CCCC(C)C2)CC1 (stereo not given) | inactive |
| COc1ccc(S(=O)(=O)Nc2ccc3c(c2)OCCO3)cc1OC | inactive |
| Cc1ccc(C2NC(=S)NC3=C2C(=O)CCC3)cc1 (stereo not given) | inactive |
| CCc1noc(C)c1C(=O)Nc1nc(-c2ccc(OC)cc2OC)cs1 | inconclusive: 22.4 µM [inhibitor, single point] |
| C=CCc1cccc(/C=N/NC(=O)CCC(=O)Nc2ccc(C)cc2)c1O | inconclusive: 29.1 µM [inhibitor, single point] |
| COc1ccc(-n2c(SCC(=O)Nc3ccc(Cl)c(C)c3)nc3n[nH]c(C)c3c2=N)cc1 | inconclusive: 35.5 µM [inhibitor, single point] |
| CCC(=O)NCCc1nc2cc(NC(=O)c3ccccc3Cl)ccc2n1C | inactive |
| CCOC(=O)c1ccc(NC(=O)CCn2c(=O)c3cccn3c3ccccc32)cc1 | inconclusive: 35.5 µM [inhibitor, single point] |
| Cn1c(=O)c2sccc2n(CC(=O)NCCC2=CCCCC2)c1=O | inconclusive: 22.4 µM [inhibitor, single point] |
| O=C(CSc1nnc(COc2cccc3cccnc23)o1)N1CCCC1 | inconclusive: 1.26 µM [inhibitor, single point] |
| Fc1cc(F)c2nc(N3CCOCC3)sc2c1 | inconclusive: 1.58 µM [activator, full curve, poor fit] |
| COc1cc(C(=O)NCCCc2nc3ccccc3n2CC(C)C)cc(OC)c1OC | inactive |
| O=C(C1CCN(S(=O)(=O)c2ccc(Br)s2)CC1)N1CCN(c2cccc(Cl)c2)CC1 | inconclusive: 25.1 µM [inhibitor, single point] |
| O=C(CCCN1C(=O)/C(=C\c2cccs2)SC1=S)Nc1ccc(C(=O)O)cc1 | inconclusive: 6.31 µM [inhibitor, single point] |
| O=C(CSc1nc2c([nH]c3ccccc32)c(=O)n1-c1ccccc1F)NCC1CCCO1 (stereo not given) | inconclusive: 35.5 µM [inhibitor, single point] |
| COc1ccc(-c2noc(CN(C(=O)COc3cc(C)c(Br)c(C)c3)C(C)C)n2)cc1 | inactive |
| COc1ccc(NC(=O)Cn2nnc(C(=O)Nc3ccc(F)c(Cl)c3)c2N)cc1OC | inconclusive: 2.51 µM [activator, full curve] |
